# Library screening results

Measurements from “University of Dundee, Small-Polar-MMV Screening Library” (2021), ChEMBL document CHEMBL3988442.

Mtb growth Cornell: 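Whole-cell assay for inhibitors of Mycobacterium tuberculosis growth, labelled Cornell in the record; the read-out is not stated. The concentration is filed as 10 mM, unlikely as a test dose, so the dose is not known. The record gives no direction; compounds strong in two other growth screens of this library score well above the rest, so higher reads as stronger inhibition. Size under these conditions: about 53,000 compounds, about 900 of them at 50% or above in at least one test.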
Mtb heat-shock: 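Assay on Mycobacterium tuberculosis, filed only as a heat shock assay from Cornell; the read-out is not stated. The concentration is filed as 10 mM, unlikely as a test dose, so the dose is not known. Direction is inferred from retests: higher values go with stronger inhibition. About 69,000 compounds were tested under these conditions; 1.4% (about 930) showed 50% or more at least once.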

Values are the deposited “Percent Effect”, in %. The record does not define 0% and 100%; most values in the screen are far below 50% and negative numbers occur (in some assays of this library far below -100). The compounds are a random part of those screened.

Result for CCS(=O)(=O)N1CCN(c2cc(-n3cnc(C)c3C)nc(C)n2)CC1 was Mtb growth Cornell: 3.48%; Mtb heat-shock: 8.393%. For O=C(O)C(F)(F)F.O=C1NC2(CCN(CC3CC3)CC2)CC1c1ccccc1 (stereo not drawn) the result was Mtb growth Cornell: -4.712%; Mtb heat-shock: -43.89%. Result for CC(NC(=O)NCCCN1CCCC1=O)c1ccc(Cl)s1 (stereo not drawn) was Mtb heat-shock: 5.825%. CNC(=O)CC1CC2(CCN(S(C)(=O)=O)CC2)c2ccccc21 (stereo not drawn) read Mtb heat-shock: 0.0743%.

Result for O=C(O)C(F)(F)F.[H][C@]12CC[C@@]3(N=C(CC)N(C)C3=O)[C@@]1([H])CN(Cc1cccc(Cl)c1)C2 was Mtb growth Cornell: -17.47%; Mtb heat-shock: 32.88%. CCc1nn(C)c(Cl)c1CN1C[C@H](NC(=O)CCO)[C@@H](C(C)C)C1 gave Mtb growth Cornell: 20.08%; Mtb heat-shock: -14.01%. With O=C(O)C(F)(F)F.O=C(O)C(F)(F)F.O=C(c1ccncc1F)N1Cc2nc(CN3CCCCC3)oc2C1 the screen gave Mtb growth Cornell: -2.972%; Mtb heat-shock: -0.9198%. Result for O=C(NC1CCN(c2ccc(-c3ccccc3F)nn2)C1)C1CCC1 (stereo not drawn) was Mtb growth Cornell: 12.02%; Mtb heat-shock: 1.597%.

O=C(NCc1csc2ccc(Cl)cc12)c1cc2n(n1)CCNC2 read Mtb growth Cornell: -16.66%; Mtb heat-shock: -32.82%. CN(C)Cc1nnc(C2CCCN(c3ncccc3F)C2)n1C (stereo not drawn) gave Mtb growth Cornell: -15.07%; Mtb heat-shock: -2.663%. For O=C(NC1CC1)c1cnc(-c2noc3cc(N4CCCCC4)ccc23)s1 the result was Mtb growth Cornell: 14.31%; Mtb heat-shock: -8.735%. Result for Cc1nc(C(NC(=O)CC(F)(F)F)c2ccc(Cl)cc2)no1 (stereo not drawn) was Mtb growth Cornell: 28.6%; Mtb heat-shock: 14.49%.

For Cc1cc(NC(=O)CN2CCn3c(nnc3C(C)C)C2)no1 the result was Mtb heat-shock: -21.31%. Result for COCCN1CC(C(=O)N(C)Cc2csc(C)n2)CC1=O (stereo not drawn) was Mtb growth Cornell: 10.71%; Mtb heat-shock: -16.23%. Result for Cc1cc2nc(C(C)C)cc(N3CCC(N(C)C)C3)n2n1 (stereo not drawn) was Mtb growth Cornell: 32.15%; Mtb heat-shock: 1.918%. [H][C@]12CC[C@]([H])(CC(=O)NC1)N2C1CCSCC1 gave Mtb heat-shock: 14.33%.

With COC(=O)NCC(=O)N(C)Cc1csc(C)n1 the screen gave Mtb heat-shock: 4.011%. O=C(O)C(F)(F)F.O=C(O)C(F)(F)F.O=C(O)C(F)(F)F.c1cc(CN2CCOCC3(CCN(CC4CCOCC4)CC3)C2)ccn1 read Mtb growth Cornell: 18.89%; Mtb heat-shock: -4.584%. For O=C(Cc1ccccn1)N1CCCC(c2nccn2CC2CCC2)C1 (stereo not drawn) the result was Mtb growth Cornell: 11.75%; Mtb heat-shock: 18.11%. CCCC1CCCN(C(=O)Nc2cccnc2OC)CC1 (stereo not drawn) gave Mtb growth Cornell: 10.71%; Mtb heat-shock: 2.052%.

COc1ccccc1-c1ccc(NCc2cn3c(n2)SCC3)nn1 read Mtb growth Cornell: 14.02%; Mtb heat-shock: -3.113%. With COCCn1cc(C(=O)N2CCCC2c2cc(C)on2)c2ccccc21 (stereo not drawn) the screen gave Mtb heat-shock: -20.39%. For CCn1cc(-c2cc(C(F)(F)F)n(CCCN)n2)cn1 the result was Mtb growth Cornell: -6.875%; Mtb heat-shock: 1.686%. With CCOCC(=O)N1CCC2(CC1)COCCN2CCOC.O=C(O)C(F)(F)F the screen gave Mtb growth Cornell: -42.21%; Mtb heat-shock: -5.332%.

CC(C)Cc1noc(CN(C)C2CCS(=O)(=O)C2)n1 (stereo not drawn) read Mtb heat-shock: -105.7%. Result for COc1ccc(Br)cc1SCCC(N)=O was Mtb growth Cornell: 5.436%; Mtb heat-shock: 3.013%. For CN1CCCN(C(=O)c2nc3c(n2C)CCN(c2ncccn2)C3)CC1 the result was Mtb growth Cornell: -31.01%; Mtb heat-shock: -35.43%. Result for CC(=O)NCCNc1nc(-c2ccccn2)nc2c1c(C)nn2C was Mtb growth Cornell: 12.46%; Mtb heat-shock: -12.81%.

O=C(O)C(F)(F)F.[H][C@]12CCN(c3ncc(C)cn3)[C@@]1([H])CCC(COCC(=O)N(C)C)O2 (stereo partly drawn) read Mtb growth Cornell: 13.89%; Mtb heat-shock: 1.635%. CS(=O)(=O)N1CCCCC1c1ccc(Nc2cnccn2)nc1 (stereo not drawn) gave Mtb growth Cornell: 21.12%; Mtb heat-shock: -10.77%. With CCCNC(=O)c1nn(CC)cc1NC(=O)C(C)n1ncc(Cl)c1C (stereo not drawn) the screen gave Mtb growth Cornell: 26.57%; Mtb heat-shock: -24.31%. CC1CCCN1Cc1ccccc1-c1nc(C(C)(C)C)cc(=O)[nH]1 (stereo not drawn) gave Mtb growth Cornell: -27.76%; Mtb heat-shock: -19.46%.

Result for O=C(O)C(F)(F)F.O=C(O)C(F)(F)F.O=C(O)CN1CCC(F)(F)C2(CCN(c3ccccn3)C2)C1 (stereo not drawn) was Mtb growth Cornell: -16.65%; Mtb heat-shock: -7.749%. Result for Cc1n[nH]c(C)c1-c1cc(-c2cccc(O)c2)nc(N)c1C#N was Mtb growth Cornell: 4.254%; Mtb heat-shock: -15.46%. With CCCc1cc(C(=O)N(C)Cc2cnn(-c3cccc(OC)c3)c2)[nH]n1 the screen gave Mtb growth Cornell: 48.14%; Mtb heat-shock: 12.46%. For COc1ccc(C2=C(C)C(N3CCc4ccccc4C3)=NS2(=O)=O)cc1 the result was Mtb growth Cornell: -12.48%; Mtb heat-shock: 3.926%.

O=C(c1cc2c(F)cccc2[nH]1)N1CCCCC1Cn1cccn1 (stereo not drawn) read Mtb heat-shock: -14.78%.

Some entries from above, unchanged:

Compound	Mtb growth Cornell	Mtb heat-shock
COc1ccc(C2=C(C)C(N3CCc4ccccc4C3)=NS2(=O)=O)cc1	-12.48%	3.926%
Cc1n[nH]c(C)c1-c1cc(-c2cccc(O)c2)nc(N)c1C#N	4.254%	-15.46%
CCc1nn(C)c(Cl)c1CN1C[C@H](NC(=O)CCO)[C@@H](C(C)C)C1	20.08%	-14.01%
CCOCC(=O)N1CCC2(CC1)COCCN2CCOC.O=C(O)C(F)(F)F	-42.21%	-5.332%